According to patent US6251897A, “6-phenyltetrahydro-1,3-oxazin-2-one derivative and pharmaceutical composition containing the same” (Nikken Chemicals Co., LTD, priority 1996, dated 2001):
Some entries share one result that the patent states for a list of compounds.

Experiment: Acute toxicity test
Format: in vivo
Details: 30 mg/kg intraperitoneally

Row | SMILES | death / survival rate of the next day
1 | COc1ccc(C2CCNC(=O)O2)cc1OCCCN1CCN(Cc2ccccc2)CC1 (stereo not drawn) [Compound No. 60, 6-[3-[3-(4-benzyl-1-piperazinyl)propoxy]-4-methoxyphenyl]-3,4,5,6-tetrahydro-2H-1,3-oxazin-2-one] | No death was observed
2 | COc1ccc(C2CCNC(=O)O2)cc1OCC1CCC1 (stereo not drawn) [Compound No. 61, 6-(3-cyclobutylmethyloxy-4-methoxyphenyl)-3,4,5,6-tetrahydro-2H-1,3-oxazin-2-one] | No death was observed
3 | COc1ccc(C2CCN(C)C(=O)O2)cc1OCC1CCC1 (stereo not drawn) [Compound No. 62, 6-(3-cyclobutylmethyloxy-4-methoxyphenyl)-3-methyl-3,4,5,6-tetrahydro-2H-1,3-oxazin-2-one] | No death was observed
4 | COc1ccc(C2CCNC(=O)O2)cc1OCC1(C)CC1 (stereo not drawn) [Compound No. 63, 6-[4-methoxy-3-[(1-methylcyclopropyl)methyloxy]phenyl]-3,4,5,6-tetrahydro-2H-1,3-oxazin-2-one] | No death was observed
5 | COc1ccc(C2CCN(C)C(=O)O2)cc1OCC1(C)CC1 (stereo not drawn) [Compound No. 64, 6-[4-methoxy-3-[(1-methylcyclopropyl)methyloxy]phenyl]-3-methyl-3,4,5,6-tetrahydro-2H-1,3-oxazin-2-one] | No death was observed
6 | COc1ccc(C2CCNC(=O)O2)cc1OCC(C)C (stereo not drawn) [Compound No. 65, 6-[4-methoxy-3-(2-methylpropoxy)phenyl]-3,4,5,6-tetrahydro-2H-1,3-oxazin-2-one] | No death was observed
7 | COc1ccc(C2CCN(C)C(=O)O2)cc1OCC(C)C (stereo not drawn) [Compound No. 66, 6-[4-methoxy-3-(2-methylpropoxy)phenyl]-3-methyl-3,4,5,6-tetrahydro-2H-1,3-oxazin-2-one] | No death was observed
8 | COc1ccc(C2CCNC(=O)O2)cc1OCCc1cccc2ccccc12 (stereo not drawn) [Compound No. 67, 6-[4-methoxy-3-[2-(1-naphthyl)ethoxy]phenyl]-3,4,5,6-tetrahydro-2H-1,3-oxazin-2-one] | No death was observed
9 | COc1ccc(C2CCN(C)C(=O)O2)cc1OCCc1cccc2ccccc12 (stereo not drawn) [Compound No. 68, 6-[4-methoxy-3-[2-(1-naphthyl)ethoxy]phenyl]-3-methyl-3,4,5,6-tetrahydro-2H-1,3-oxazin-2-one] | No death was observed
10 | CCC(CC)COc1cc(C2CCNC(=O)O2)ccc1OC (stereo not drawn) [Compound No. 69, 6-[3-(2-ethylbutoxy)-4-methoxyphenyl]-3,4,5,6-tetrahydro-2H-1,3-oxazin-2-one] | No death was observed
11 | CCC(CC)COc1cc(C2CCN(C)C(=O)O2)ccc1OC (stereo not drawn) [Compound No. 70, 6-[3-(2-ethylbutoxy)-4-methoxyphenyl]-3-methyl-3,4,5,6-tetrahydro-2H-1,3-oxazin-2-one] | No death was observed
12 | CCN1CCC(c2ccc(OC)c(OC3Cc4ccccc4C3)c2)OC1=O (stereo not drawn) [Compound No. 71, 3-ethyl-6-[3-(2-indanyloxy)-4-methoxyphenyl]-3,4,5,6-tetrahydro-2H-1,3-oxazin-2-one] | No death was observed
13 | COc1ccc(C2CCNC(=O)O2)cc1OCCc1scnc1C (stereo not drawn) [Compound No. 72, 6-[4-methoxy-3-[2-(4-methyl-5-thiazolyl)ethoxy]phenyl]-3,4,5,6-tetrahydro-2H-1,3-oxazin-2-one] | No death was observed
14 | COc1ccc(C2CCNC(=O)O2)cc1OCCc1ccc(F)cc1 (stereo not drawn) [Compound No. 74, 6-[3-[2-(4-fluorophenyl)ethoxy]-4-methoxyphenyl]-3,4,5,6-tetrahydro-2H-1,3-oxazin-2-one] | No death was observed
15 | COc1ccc(C2CCN(C)C(=O)O2)cc1OCCc1ccc(F)cc1 (stereo not drawn) [Compound No. 75, 6-[3-[2-(4-fluorophenyl)ethoxy]-4-methoxyphenyl]-3-methyl-3,4,5,6-tetrahydro-2H-1,3-oxazin-2-one] | No death was observed
16 | COc1ccc(C2CCNC(=O)O2)cc1OCC1CCCC1 (stereo not drawn) [Compound No. 76, 6-(3-cyclopentylmethyloxy-4-methoxyphenyl)-3,4,5,6-tetrahydro-2H-1,3-oxazin-2-one] | No death was observed
17 | COc1ccc(C2CCN(C)C(=O)O2)cc1OCC1CCCC1 (stereo not drawn) [Compound No. 77, 6-(3-cyclopentylmethyloxy-4-methoxyphenyl)-3-methyl-3,4,5,6-tetrahydro-2H-1,3-oxazin-2-one] | No death was observed
18 | COc1ccc(C2CCNC(=O)O2)cc1OC1(C)CCCC1 (stereo not drawn) [Compound No. 80, 6-[4-methoxy-3-(1-methylcyclopentyloxy)phenyl]-3,4,5,6-tetrahydro-2H-1,3-oxazin-2-one] | No death was observed
19 | COc1ccc(C2(C)CCNC(=O)O2)cc1OCC(C)C (stereo not drawn) [Compound No. 81, 6-[4-methoxy-3-(2-methylpropoxy)phenyl]-6-methyl-3,4,5,6-tetrahydro-2H-1,3-oxazin-2-one] | No death was observed
20 | COc1ccc(C2(C)CCN(C)C(=O)O2)cc1OCC(C)C (stereo not drawn) [Compound No. 82, 3,6-dimethyl-6-[4-methoxy-3-(2-methylpropoxy)phenyl]-3,4,5,6-tetrahydro-2H-1,3-oxazin-2-one] | No death was observed
21 | COc1ccc(C2CCNC(=O)O2)cc1OCCOCc1ccccc1 (stereo not drawn) [Compound No. 83, 6-[3-(2-benzyloxyethoxy)-4-methoxyphenyl]-3,4,5,6-tetrahydro-2H-1,3-oxazin-2-one] | No death was observed
22 | COc1ccc(C2CCN(C)C(=O)O2)cc1OCCOCc1ccccc1 (stereo not drawn) [Compound No. 84, 6-[3-(2-benzyloxyethoxy)-4-methoxyphenyl]-3-methyl-3,4,5,6-tetrahydro-2H-1,3-oxazin-2-one] | No death was observed
23 | COc1ccc(C2OC(=O)NCC2(C)C)cc1OC1CCCC1 (stereo not drawn) [Compound No. 85, 6-(3-cyclopentyloxy-4-methoxyphenyl)-5,5-dimethyl-3,4,5,6-tetrahydro-2H-1,3-oxazin-2-one] | No death was observed
24 | COc1ccc(C2OC(=O)N(C)CC2(C)C)cc1OC1CCCC1 (stereo not drawn) [Compound No. 86, 6-(3-cyclopentyloxy-4-methoxyphenyl)-3,5,5-trimethyl-3,4,5,6-tetrahydro-2H-1,3-oxazin-2-one] | No death was observed
25 | COc1ccc(C2OC(=O)NCC2(C)C)cc1OC1Cc2ccccc2C1 (stereo not drawn) [Compound No. 87, 5,5-dimethyl-6-[3-(2-indanyloxy)-4-methoxyphenyl]-3,4,5,6-tetrahydro-2H-1,3-oxazin-2-one] | No death was observed
26 | COc1ccc(C2OC(=O)N(C)CC2(C)C)cc1OC1Cc2ccccc2C1 (stereo not drawn) [Compound No. 88, 6-[3-(2-indanyloxy)-4-methoxyphenyl]-3,5,5-trimethyl-3,4,5,6-tetrahydro-2H-1,3-oxazin-2-one] | No death was observed
27 | COc1ccc(C2CCNC(=O)O2)cc1OC1CCN(Cc2ccccc2)CC1 (stereo not drawn) [Compound No. 89, 6-[3-(1-benzyl-4-piperidyloxy)-4-methoxyphenyl]-3,4,5,6-tetrahydro-2H-1,3-oxazin-2-one] | No death was observed
28 | COc1ccc(C2CCNC(=O)O2)cc1OCCOCC1CC1 (stereo not drawn) [Compound No. 90, 6-[3-[2-(cyclopropylmethyloxy)ethoxy]-4-methoxyphenyl]-3,4,5,6-tetrahydro-2H-1,3-oxazin-2-one] | No death was observed
29 | COc1ccc(C2CCNC(=O)O2)cc1OC1CCOC1 (stereo not drawn) [Compound No. 93, 6-[3-(3-tetrahydrofuryloxy)-4-methoxyphenyl]-3,4,5,6-tetrahydro-2H-1,3-oxazin-2-one] | No death was observed
30 | COc1ccc(C2CCN(C)C(=O)O2)cc1OCCc1scnc1C (stereo not drawn) [compound 73, 6-[4-methoxy-3-[2-(4-methyl-5-thiazolyl)ethoxy]phenyl]-3-methyl-3,4,5,6-tetrahydro-2H-1,3-oxazin-2-one] | No death was observed
